The results in this text go back to the supplement of paper PMC10735217.

Counter-ions that a name gives are not always drawn. This is one part of the list. Single values are uncertain here, since repeats match poorly.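 In a drug-repurposing library screen, luminescence reads luciferase driven by eight TEAD-binding elements, stably integrated into human kidney-derived cells. Compounds scoring over five robust Z scores above the plate mean are called hits.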

The test relates to HEK293A TEAD-LUC reporter. Nature of the test: TEAD-luciferase reporter activity (YAP activation), robust Z score vs plate; higher = stronger YAP/TEAD activation. To be noted: 24 h.

Consider `O=S1(=O)c2ccc(F)cc2Oc2cc(OCC(F)(F)F)ccc21`, for which the TEAD-luciferase reporter activity (compound concentration: 200 nM) is inactive: -0.803, the TEAD-luciferase reporter activity (compound concentration: 2 uM) was inactive: 0.544 and the TEAD-luciferase reporter activity (compound concentration: 10 uM) was inactive: 2.59.

For `CN(C)/C=N/c1cccc(O)n1`, the TEAD-luciferase reporter activity reads like this: (compound concentration: 200 nM) inactive: -0.345; (compound concentration: 2 uM) inactive: -0.189; (compound concentration: 10 uM) inactive: -1.45.

`CC(C)C[C@@H]1NC(=O)[C@H](CCCN)NC(=O)[C@H](C(C)C)NC(=O)[C@H](Cc2ccc(O)cc2)N[C@@H](CCC(=O)O)C(=O)N[C@@H](CC(N)=O)C(=O)[C@@H](Cc2ccccc2)NC(=O)[C@H](Cc2ccccc2)NC(=O)[C@@H]2CCCN2C(=O)[C@@H](Cc2ccccc2)NC1=O`: the TEAD-luciferase reporter activity was inactive: -2.53 (compound concentration: 200 nM), inactive: 0.206 (compound concentration: 2 uM) and inactive: 0.212 (compound concentration: 10 uM).

As for `CC[N+](C)(CC)CCSC1=CC(c2ccc(Sc3ccccc3)cc2)=Nc2ccccc2N1` [Tibenzonium], the TEAD-luciferase reporter activity reads like this: (compound concentration: 200 nM) inactive: 1.11; (compound concentration: 2 uM) inactive: -0.206; (compound concentration: 10 uM) inactive: -0.907.

As to `CC1=C(/C=C/C(C)=C/C=C/C(C)=C/C(=O)Nc2ccc(O)cc2)C(C)(C)CCC1` [Retinoic acid p-hydroxyanilide], the TEAD-luciferase reporter activity is, setting by setting: (compound concentration: 200 nM) inactive: -0.432; (compound concentration: 10 uM) inactive: -1.29.

Take `CC1=C(/C=C/C(C)=C/C=C/C(C)=C/C(=O)Nc2ccc(O)cc2)C(C)(C)CCC1` [fenretinide]: the TEAD-luciferase reporter activity (compound concentration: 2 uM) is inactive: -2.14.

As for `Nc1c(C(=O)c2cccc(OCC(O)CO)c2)cnn1-c1ccc(F)cc1` (centres undefined), the TEAD-luciferase reporter activity reads like this: (compound concentration: 200 nM) inactive: -0.79; (compound concentration: 2 uM) inactive: -1.41; (compound concentration: 10 uM) inactive: -0.484.

As for `CC#CC(=O)Nc1cc2c(Nc3ccc(F)c(Cl)c3)ncnc2cn1`, the TEAD-luciferase reporter activity reads like this: (compound concentration: 200 nM) inactive: -2.66; (compound concentration: 2 uM) inactive: -0.572; (compound concentration: 10 uM) inactive: 0.705.

As to `Clc1ccc(Nc2c3ccccc3nc3ccccc23)cc1Cl`, the TEAD-luciferase reporter activity reads like this: (compound concentration: 200 nM) inactive: -0.868; (compound concentration: 2 uM) inactive: -1.98; (compound concentration: 10 uM) inactive: 0.437.

Turning to `OCCOc1ccc(C2CCCCC2)cc1`, the TEAD-luciferase reporter activity (compound concentration: 200 nM) was inactive: 0.101, the TEAD-luciferase reporter activity (compound concentration: 2 uM) was inactive: 2.11 and the TEAD-luciferase reporter activity (compound concentration: 10 uM) was inactive: 0.879.

As to `Cc1cccc(-c2[nH]c(Cc3cccc(C(N)=O)c3)nc2-c2ccc3nccnc3c2)n1`, the TEAD-luciferase reporter activity was inactive: 0.7 (compound concentration: 200 nM), inactive: -0.728 (compound concentration: 2 uM) and inactive: 0.178 (compound concentration: 10 uM).

For `COc1ccccc1N1CCN(C(=O)Cn2c(=O)[nH]c3ccccc3c2=O)CC1`, the TEAD-luciferase reporter activity (compound concentration: 200 nM) was inactive: 4.37, the TEAD-luciferase reporter activity (compound concentration: 2 uM) is inactive: -0.974 and the TEAD-luciferase reporter activity (compound concentration: 10 uM) is inactive: 2.56.

Consider `Cc1ccc(N(CC2=NCCN2)c2cccc(O)c2)cc1` [Phentolamine Mesylate], for which the TEAD-luciferase reporter activity (compound concentration: 200 nM) was inactive: -1.24 and the TEAD-luciferase reporter activity (compound concentration: 10 uM) was inactive: -0.643.

Regarding `Cc1ccc(N(CC2=NCCN2)c2cccc(O)c2)cc1` [Phentolamine mesilate], where the note is “compound concentration: 2 uM”, the TEAD-luciferase reporter activity was inactive: -0.218.

In the case of `CCCc1c(OCc2cccn3c(=O)c(-c4nnn[nH]4)cnc23)ccc(C(C)=O)c1O`, the TEAD-luciferase reporter activity (compound concentration: 200 nM) was inactive: -2.53, the TEAD-luciferase reporter activity (compound concentration: 2 uM) was inactive: -1.01 and the TEAD-luciferase reporter activity (compound concentration: 10 uM) is inactive: -1.17.
